Measurements from PubChem BioAssay AID493014 (National Center for Advancing Translational Sciences (NCATS), 2011).
The list shows a part of the results. These are further read-outs of the screen, such as a control signal, another cell line or another target. No call is given for them. The list favours compounds with an active or inconclusive main result. Potencies come from curve fits of mixed quality, noted in brackets.

Assay: qHTS Assay to Find Inhibitors of Chronic Active B-Cell Receptor Signaling
Settings: ABC-DLBCL IkBa-CBG/CBR reporter, luminescence ratio (green luciferase fused to IkBa over red control in TMD8 lymphoma cells), 4 h
Method in brief: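 Compounds up to 46 uM were incubated four hours with TMD8 cells whose green CBG68 luciferase is fused to IkappaBalpha; red CBR luminescence normalised the signal, and concentration-effect curves were fitted to fusion, red and ratio data.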

[1] = measured here: CBR red luminescence, cell number
[2] = measured here: IkBa-CBG green luminescence

| Structure (SMILES) | AC50 [1] | AC50 [2] |
| --- | --- | --- |
| CCCCCn1nc(C)c(/C=N\NC(=O)c2cc(C)oc2C)c1C | 20.6 µM [falling, partial curve] |  |
| CC(C)n1c(SCC(N)=O)nc2c1c(=O)[nH]c(=O)n2C | 10 µM [rising, partial curve, poor fit] |  |
| CCn1c(CSc2nc3ccccc3s2)nc2ccccc21 | 2.59 µM [rising, single point] |  |
| Clc1ccccc1C1=Nn2c(nnc2-c2ccco2)SC1 | 0.355 µM [rising, full curve, poor fit] |  |
| O=C(CCSCc1ccccc1F)NCCc1ccccc1 | 6.31 µM [rising, partial curve, poor fit] |  |
| O=C(c1cccs1)N1N=C(c2ccc(O)cc2)CC1c1ccccc1 (stereo not drawn) | 20.6 µM [falling, partial curve] |  |
| C/C(=N/NC(=O)C1CCN(S(=O)(=O)c2ccc(C)cc2)CC1)c1cccc([N+](=O)[O-])c1 | 6.51 µM [rising, single point] |  |
| CCCc1nc(NC(=O)c2ccccc2)nc(NC(=O)c2ccccc2)n1 | 0.794 µM [falling, full curve, poor fit] |  |
| Cc1ccc2c(CN(C)Cc3ccccc3)cc(=O)oc2c1C | 17.8 µM [falling, partial curve] |  |
| Cc1c(C(=O)N(C)c2ccccc2Cl)cnn1-c1ccccc1 | 0.794 µM [rising, full curve, poor fit] |  |
| COc1ccc(-c2nc(-c3cccs3)no2)cc1 | 10 µM [falling, single point] |  |
| Cc1ccc(N(C(=O)Cc2c[nH]c3ccccc23)C(C(=O)NC2CCCCC2)c2ccco2)cc1 (stereo not drawn) | 18.4 µM [falling, partial curve, poor fit] |  |
| Cc1cc(NC(=S)N(Cc2cccc(Br)c2)CC2CCC(C(=O)O)CC2)ccc1Cl (stereo not drawn) | 2.82 µM [falling, full curve] |  |
| CCn1c2ccccc2c2nc3cc(OC)c(OC)cc3nc21 | 4.47 µM [rising, full curve] |  |
| COc1cc(/C=N/N=C(\N)c2nonc2N)cc(OC)c1OC | 3.55 µM [rising, partial curve, poor fit] |  |
| O=[N+]([O-])c1cc(F)c(N2CCOCC2)cc1N1CCCCC1 | 15.8 µM [rising, partial curve, poor fit] |  |
| CCOC(=O)CCCNC(=O)COC(=O)c1cc(C)cc(C)c1 | 25.9 µM [falling, single point] |  |
| CCc1ccc(-n2nnnc2SCC(=O)NNC(=O)c2ccco2)cc1 | 35.5 µM [rising, single point] |  |
| CCOC(=O)c1ccc(N2C(=O)C(CC(=O)NC)N(CCc3ccc(OC)c(OC)c3)C2=S)cc1 (stereo not drawn) | 11.2 µM [falling, partial curve] |  |
| CCOc1ccc(-c2ccc(SC)nn2)cc1 | 3.98 µM [falling, full curve] |  |
| C#CCOCCOCCOCCNc1nc(N2CCN(C(=O)CCCCCCCCCCNC(=O)Cn3cc(C[C@@H](C)O)nn3)CC2)nc(N2CCN(C(=O)CCCCCCCCCCNC(=O)[C@@H](CCSC)n3cc(CCO)nn3)CC2)n1 | 9.2 µM [rising, partial curve] |  |
| Nc1cc2nn(-c3ccccc3)nc2cc1Cl | 11.2 µM [falling, single point] |  |

| Structure (SMILES) | AC50 [1] | AC50 [2] |
| --- | --- | --- |
| CCCc1cc(-c2n[nH]c(C(=O)OCC)c2-c2cscn2)c(O)cc1O | 0.282 µM [falling, full curve] |  |
| Cc1cc(C)cc(NC(=O)c2ccc(N3C(=O)C4CCCCC4C3=O)cc2)c1 (stereo not drawn) | 11.2 µM [falling, partial curve, poor fit] |  |
| COc1cccc2c1C(CO)N1C(C#N)C3CC(C(=O)O)C(C1C2)N3C (stereo not drawn) | 1.41 µM [falling, full curve] | 0.355 µM [rising, full curve, poor fit] |
| CCn1c(=O)c(C(=O)Nc2ccccc2S(N)(=O)=O)c(O)c2ccccc21 | 5.01 µM [falling, partial curve] |  |
| COc1cc(C(=O)N2CCN(c3cc(Cl)ccc3Cl)CC2)cc(OC)c1OC |  | 0.92 µM [falling, full curve] |
| O=C(N1CCCCC1)N1CCN(C(=O)N2CCCCC2)CC1 | 3.98 µM [rising, full curve, poor fit] |  |
| CC(C)c1ccc(NC(=S)N2CCCC2)cc1 | 10 µM [rising, partial curve] |  |
| O=C1CC(N(CCc2ccccc2)C(=S)Nc2ccccc2)C(=O)N1c1ccccc1 (stereo not drawn) | 29.1 µM [falling, single point] |  |
| CCOC(=O)c1sc2nc(CC(=O)OC)nc(NCC(=O)OC)c2c1C | 0.282 µM [falling, full curve, poor fit] |  |
| CCC1CCCN1Cn1cnc2c([nH]c3ccc(Cl)cc32)c1=O (stereo not drawn) | 8.2 µM [falling, partial curve, poor fit] |  |
| O=C(Nc1scc(-c2cccs2)c1C(=O)O)c1cccs1 | 17.8 µM [falling, single point] |  |
| CCCn1cnc2c(sc3nc4c(cc32)CSC(C)(C)C4)c1=O | 29.1 µM [rising, single point] |  |
| Cc1onc(-c2ccccc2)c1C(=O)N/N=C/c1c[nH]c2ccccc12 | 0.631 µM [falling, full curve, poor fit] | 3.98 µM [rising, partial curve, poor fit] |
| C=C1CCC[C@]2(C)C[C@H]3OC(=O)C(CNCCN(CC)CC)[C@H]3CC12 (stereo partly drawn) | 15.8 µM [falling, partial curve] |  |
| CNC(=O)NC(=O)C(C)Oc1ccccc1F (stereo not drawn) | 35.5 µM [falling, single point] |  |
| CCSc1nnc(NC(=O)COc2ccccc2[N+](=O)[O-])s1 | 28.2 µM [falling, single point] |  |
| C=CCn1c(SCCCC)nc(O)cc1=O | 6.51 µM [rising, single point] |  |
| CSCCC(NC(=O)c1ccco1)C(=O)Nc1ccc(C)cn1 (stereo not drawn) | 1.3 µM [rising, full curve, poor fit] |  |
| COc1ccc(-c2nc3scc(CCNS(=O)(=O)c4ccc(Oc5ccccc5)cc4)n3n2)cc1 | 17.8 µM [rising, single point] |  |
| COc1ccc(Cc2noc(CN(C)CCc3ccccc3)n2)cc1OC | 25.1 µM [falling, single point] |  |
| CCC(=O)N1c2ccc(S(=O)(=O)CCC(=O)NCc3cccs3)cc2CC1C (stereo not drawn) | 23.1 µM [rising, single point] |  |
| CCOc1ccc(C(=O)Cc2cc3cccc(OC)c3oc2=O)cc1 | 5.01 µM [falling, full curve, poor fit] |  |

Reprinted from above, 3 compounds:

| Structure (SMILES) | AC50 [1] | AC50 [2] |
| --- | --- | --- |
| C=CCn1c(SCCCC)nc(O)cc1=O | 6.51 µM [rising, single point] |  |
| CSCCC(NC(=O)c1ccco1)C(=O)Nc1ccc(C)cn1 (stereo not drawn) | 1.3 µM [rising, full curve, poor fit] |  |
| COc1ccc(-c2nc3scc(CCNS(=O)(=O)c4ccc(Oc5ccccc5)cc4)n3n2)cc1 | 17.8 µM [rising, single point] |  |

Additional records

| Structure (SMILES) | AC50 [1] | AC50 [2] |
| --- | --- | --- |
| COc1ccc(C2=CC(=O)C=CC2=O)cc1 | 17.8 µM [falling, single point] |  |
| COc1ccc(-n2cc(CNC3CCC(O)CC3)c(-c3cccc(F)c3)n2)cc1 (stereo not drawn) | 10 µM [falling, partial curve] |  |
| Cc1cc(C(=O)NCc2ccco2)cs1 | 10.3 µM [rising, partial curve, poor fit] |  |
| O=C(CN1CCCCC1)Nc1cc(Cl)ccc1Oc1ccccc1 | 12.6 µM [rising, partial curve, poor fit] |  |
| CC1(C)Cc2ccccc2-c2nnc(-c3ccco3)n21 | 16.4 µM [falling, single point] |  |
| Cc1cc2cc(CNC(=O)c3ccco3)ccc2n1C | 2.51 µM [rising, partial curve] |  |
| Cc1ccc(-n2[nH]c(C)c(C=Nc3ccc(S(=O)(=O)Nc4nc(C)cc(C)n4)cc3)c2=O)c(C)c1 | 29.1 µM [rising, single point] |  |
| CC1CCN(c2ccc(-c3ccc(NC(=O)C(F)(F)F)cc3)nn2)CC1 | 3.16 µM [falling, full curve, poor fit] |  |
| Cc1cccc(C)c1NC(=O)c1ccc([N+](=O)[O-])s1 | 18.4 µM [falling, partial curve, poor fit] |  |
| Cc1nc(-c2ccc(C(=O)N3CCCC3)cc2)cs1 | 35.5 µM [falling, single point] |  |
| O=C(/C=C/c1ccco1)Nc1nc(-c2ccccn2)cs1 | 12.6 µM [falling, single point] | 11.2 µM [rising, partial curve, poor fit] |
| Cc1nnc(C)n1/N=C/c1cccn1C | 0.82 µM [rising, full curve, poor fit] |  |
| NC(=O)c1ccsc1NC(=O)CCc1ccccc1 | 7.94 µM [falling, partial curve] |  |
| COc1ccc(/C=C2\SC(=O)N(CCC(=O)N3CCCCC3CCO)C2=O)cc1 (stereo not drawn) | 5.01 µM [falling, partial curve] |  |
| c1ccc(-n2nnc3c(N4CCOCC4)ncnc32)cc1 | 20 µM [falling, single point] |  |
| CSc1nc(Nc2ccc(Cl)cc2)c(C#N)c(=O)[nH]1 | 35.5 µM [rising, partial curve, poor fit] |  |
| O=C(Nc1ccc2c(c1)OCCO2)c1ccc(Br)s1 | 11.6 µM [falling, partial curve, poor fit] |  |
| COc1ncccc1-c1nnn(-c2ccc(C)cc2)n1 | 35.5 µM [falling, single point] |  |
| Cc1ccc(Cl)cc1N1CCN(C(=O)c2ccc(CS(=O)c3ccccc3)o2)CC1 (stereo not drawn) | 35.5 µM [falling, single point] |  |
| COc1ccc(C(=O)Nc2ccc(CN3CCOCC3)cc2)cc1 | 6.51 µM [rising, single point] |  |
| CCOC(=O)C1CCN(c2ccccc2CN2CCN(c3ccccc3OCC)CC2)CC1 | 12.6 µM [rising, single point] |  |
